Source: the supplement of paper PMC12067093, “Discovery and optimisation of a covalent ligand for TRIM25 and its application to targeted protein ubiquitination” (Chemical Science, 2025)
This is one part of the list.

Sequences of proteins named here, by UniProt entry; tags and fusion partners are left off. A change or cut given only in a name is not applied to a line headed by its entry.
UniProt O95490: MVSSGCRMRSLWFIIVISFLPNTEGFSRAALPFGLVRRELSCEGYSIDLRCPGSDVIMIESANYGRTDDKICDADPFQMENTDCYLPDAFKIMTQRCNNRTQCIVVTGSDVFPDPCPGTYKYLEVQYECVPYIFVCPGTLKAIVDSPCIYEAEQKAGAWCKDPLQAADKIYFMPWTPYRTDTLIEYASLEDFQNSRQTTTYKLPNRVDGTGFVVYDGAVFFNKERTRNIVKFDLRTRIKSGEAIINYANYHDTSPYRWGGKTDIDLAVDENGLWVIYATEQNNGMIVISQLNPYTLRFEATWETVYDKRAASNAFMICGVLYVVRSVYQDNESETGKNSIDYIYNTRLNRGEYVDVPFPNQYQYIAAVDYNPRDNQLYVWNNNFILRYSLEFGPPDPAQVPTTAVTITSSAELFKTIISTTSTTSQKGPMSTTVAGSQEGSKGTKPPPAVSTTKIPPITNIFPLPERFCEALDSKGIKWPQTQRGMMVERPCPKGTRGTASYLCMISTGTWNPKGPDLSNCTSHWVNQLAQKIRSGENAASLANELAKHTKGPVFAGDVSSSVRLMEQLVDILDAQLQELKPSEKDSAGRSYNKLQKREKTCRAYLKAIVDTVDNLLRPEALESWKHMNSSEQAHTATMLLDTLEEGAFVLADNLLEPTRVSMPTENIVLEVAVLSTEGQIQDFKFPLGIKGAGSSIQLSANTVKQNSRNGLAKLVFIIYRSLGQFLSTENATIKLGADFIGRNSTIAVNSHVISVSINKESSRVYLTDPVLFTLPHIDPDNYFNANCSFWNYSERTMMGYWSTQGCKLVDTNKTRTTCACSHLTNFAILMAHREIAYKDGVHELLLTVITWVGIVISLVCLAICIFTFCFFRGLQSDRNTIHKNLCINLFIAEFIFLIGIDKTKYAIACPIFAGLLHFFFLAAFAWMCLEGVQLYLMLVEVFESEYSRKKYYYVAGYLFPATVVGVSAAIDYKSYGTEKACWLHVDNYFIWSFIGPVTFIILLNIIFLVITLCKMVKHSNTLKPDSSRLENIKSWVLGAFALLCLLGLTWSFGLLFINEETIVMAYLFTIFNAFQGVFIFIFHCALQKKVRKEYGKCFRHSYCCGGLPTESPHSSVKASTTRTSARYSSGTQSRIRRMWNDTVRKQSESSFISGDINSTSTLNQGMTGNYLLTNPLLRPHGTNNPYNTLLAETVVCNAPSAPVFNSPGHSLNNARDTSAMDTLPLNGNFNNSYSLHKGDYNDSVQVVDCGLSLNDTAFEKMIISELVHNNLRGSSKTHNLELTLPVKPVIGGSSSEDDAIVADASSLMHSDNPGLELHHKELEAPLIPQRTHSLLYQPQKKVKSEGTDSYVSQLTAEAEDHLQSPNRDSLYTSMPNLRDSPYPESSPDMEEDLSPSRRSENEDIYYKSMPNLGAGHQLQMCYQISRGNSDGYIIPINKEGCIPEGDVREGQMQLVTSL
UniProt P24666: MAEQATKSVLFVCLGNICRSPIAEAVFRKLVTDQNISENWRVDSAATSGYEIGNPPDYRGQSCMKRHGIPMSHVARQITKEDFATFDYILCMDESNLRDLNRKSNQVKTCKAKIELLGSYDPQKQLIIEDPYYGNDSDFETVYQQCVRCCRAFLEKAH
UniProt Q9ULC5: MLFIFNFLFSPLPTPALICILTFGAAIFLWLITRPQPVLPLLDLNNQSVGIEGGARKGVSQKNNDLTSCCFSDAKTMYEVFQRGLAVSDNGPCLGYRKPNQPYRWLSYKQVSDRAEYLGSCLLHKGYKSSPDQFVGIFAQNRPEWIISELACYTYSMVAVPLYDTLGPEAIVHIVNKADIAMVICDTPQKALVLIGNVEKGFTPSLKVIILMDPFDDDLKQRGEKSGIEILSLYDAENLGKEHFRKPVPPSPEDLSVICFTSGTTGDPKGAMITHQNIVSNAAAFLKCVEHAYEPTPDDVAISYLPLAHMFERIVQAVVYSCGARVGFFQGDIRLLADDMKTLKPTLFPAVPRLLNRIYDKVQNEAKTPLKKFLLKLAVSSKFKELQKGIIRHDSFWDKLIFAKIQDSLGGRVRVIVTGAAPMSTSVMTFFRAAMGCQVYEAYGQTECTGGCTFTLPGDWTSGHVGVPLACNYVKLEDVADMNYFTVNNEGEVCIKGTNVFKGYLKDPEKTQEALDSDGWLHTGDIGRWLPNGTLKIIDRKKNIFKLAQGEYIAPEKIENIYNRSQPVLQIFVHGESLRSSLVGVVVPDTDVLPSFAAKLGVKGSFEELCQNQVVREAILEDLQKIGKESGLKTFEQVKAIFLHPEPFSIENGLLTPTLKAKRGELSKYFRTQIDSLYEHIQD
UniProt O14734: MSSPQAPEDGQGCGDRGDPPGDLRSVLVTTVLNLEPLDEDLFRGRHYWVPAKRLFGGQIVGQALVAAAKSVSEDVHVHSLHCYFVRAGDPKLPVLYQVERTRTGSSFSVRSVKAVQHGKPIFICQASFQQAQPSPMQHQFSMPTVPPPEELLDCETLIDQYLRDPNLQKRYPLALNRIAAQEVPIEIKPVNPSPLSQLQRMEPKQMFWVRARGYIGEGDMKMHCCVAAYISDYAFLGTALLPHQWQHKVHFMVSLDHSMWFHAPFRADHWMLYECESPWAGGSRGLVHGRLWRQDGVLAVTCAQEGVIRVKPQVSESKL
UniProt P11766: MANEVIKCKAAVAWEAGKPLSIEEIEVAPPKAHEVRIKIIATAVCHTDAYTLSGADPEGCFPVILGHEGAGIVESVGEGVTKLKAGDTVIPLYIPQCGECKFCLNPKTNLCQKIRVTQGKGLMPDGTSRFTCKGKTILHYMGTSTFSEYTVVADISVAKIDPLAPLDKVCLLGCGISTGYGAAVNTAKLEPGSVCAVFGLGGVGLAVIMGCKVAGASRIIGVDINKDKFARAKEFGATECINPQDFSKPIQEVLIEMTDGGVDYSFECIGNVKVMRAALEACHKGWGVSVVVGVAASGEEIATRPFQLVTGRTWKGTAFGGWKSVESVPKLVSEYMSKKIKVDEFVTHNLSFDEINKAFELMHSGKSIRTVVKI
UniProt P30520: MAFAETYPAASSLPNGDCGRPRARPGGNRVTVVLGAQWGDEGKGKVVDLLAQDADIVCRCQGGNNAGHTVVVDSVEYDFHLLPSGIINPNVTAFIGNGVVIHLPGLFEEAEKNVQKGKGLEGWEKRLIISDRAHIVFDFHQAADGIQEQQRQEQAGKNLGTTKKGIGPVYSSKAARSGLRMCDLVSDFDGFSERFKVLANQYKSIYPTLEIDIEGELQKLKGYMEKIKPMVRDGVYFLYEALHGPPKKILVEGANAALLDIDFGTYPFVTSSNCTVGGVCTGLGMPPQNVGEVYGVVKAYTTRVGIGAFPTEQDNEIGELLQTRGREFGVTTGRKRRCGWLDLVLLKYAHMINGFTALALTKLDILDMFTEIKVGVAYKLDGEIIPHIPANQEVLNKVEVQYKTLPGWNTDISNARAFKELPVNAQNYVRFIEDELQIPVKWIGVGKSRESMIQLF
UniProt Q9BRR6: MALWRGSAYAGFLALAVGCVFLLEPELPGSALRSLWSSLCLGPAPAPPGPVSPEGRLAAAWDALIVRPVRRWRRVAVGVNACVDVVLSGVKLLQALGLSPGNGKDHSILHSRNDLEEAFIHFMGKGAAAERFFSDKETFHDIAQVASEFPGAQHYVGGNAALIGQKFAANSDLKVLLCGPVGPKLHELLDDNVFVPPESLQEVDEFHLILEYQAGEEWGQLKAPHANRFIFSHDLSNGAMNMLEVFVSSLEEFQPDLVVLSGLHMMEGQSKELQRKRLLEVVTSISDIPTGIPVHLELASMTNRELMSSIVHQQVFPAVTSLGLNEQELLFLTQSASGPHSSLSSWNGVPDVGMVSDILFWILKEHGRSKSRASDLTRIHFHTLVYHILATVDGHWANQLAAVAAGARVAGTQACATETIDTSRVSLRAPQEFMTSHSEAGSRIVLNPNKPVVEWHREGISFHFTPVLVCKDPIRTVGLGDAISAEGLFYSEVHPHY
UniProt O15254: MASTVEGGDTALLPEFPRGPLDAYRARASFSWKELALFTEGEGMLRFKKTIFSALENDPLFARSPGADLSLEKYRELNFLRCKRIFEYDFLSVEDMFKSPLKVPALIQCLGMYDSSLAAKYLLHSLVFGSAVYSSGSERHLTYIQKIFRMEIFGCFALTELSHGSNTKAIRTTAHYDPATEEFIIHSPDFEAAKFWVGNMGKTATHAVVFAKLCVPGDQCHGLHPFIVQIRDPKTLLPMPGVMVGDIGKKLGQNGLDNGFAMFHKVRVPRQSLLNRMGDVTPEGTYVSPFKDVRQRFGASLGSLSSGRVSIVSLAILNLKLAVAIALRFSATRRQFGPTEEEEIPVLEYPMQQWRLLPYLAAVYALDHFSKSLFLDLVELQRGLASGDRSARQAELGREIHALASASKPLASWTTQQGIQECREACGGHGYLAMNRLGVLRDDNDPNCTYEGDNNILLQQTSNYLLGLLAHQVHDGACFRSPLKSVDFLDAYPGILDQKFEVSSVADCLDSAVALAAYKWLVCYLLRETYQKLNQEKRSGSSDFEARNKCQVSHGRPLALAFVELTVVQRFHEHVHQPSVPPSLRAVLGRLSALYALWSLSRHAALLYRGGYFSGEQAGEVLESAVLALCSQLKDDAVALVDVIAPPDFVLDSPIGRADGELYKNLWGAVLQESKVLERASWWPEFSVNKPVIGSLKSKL
UniProt P12814, whole entry, looked up: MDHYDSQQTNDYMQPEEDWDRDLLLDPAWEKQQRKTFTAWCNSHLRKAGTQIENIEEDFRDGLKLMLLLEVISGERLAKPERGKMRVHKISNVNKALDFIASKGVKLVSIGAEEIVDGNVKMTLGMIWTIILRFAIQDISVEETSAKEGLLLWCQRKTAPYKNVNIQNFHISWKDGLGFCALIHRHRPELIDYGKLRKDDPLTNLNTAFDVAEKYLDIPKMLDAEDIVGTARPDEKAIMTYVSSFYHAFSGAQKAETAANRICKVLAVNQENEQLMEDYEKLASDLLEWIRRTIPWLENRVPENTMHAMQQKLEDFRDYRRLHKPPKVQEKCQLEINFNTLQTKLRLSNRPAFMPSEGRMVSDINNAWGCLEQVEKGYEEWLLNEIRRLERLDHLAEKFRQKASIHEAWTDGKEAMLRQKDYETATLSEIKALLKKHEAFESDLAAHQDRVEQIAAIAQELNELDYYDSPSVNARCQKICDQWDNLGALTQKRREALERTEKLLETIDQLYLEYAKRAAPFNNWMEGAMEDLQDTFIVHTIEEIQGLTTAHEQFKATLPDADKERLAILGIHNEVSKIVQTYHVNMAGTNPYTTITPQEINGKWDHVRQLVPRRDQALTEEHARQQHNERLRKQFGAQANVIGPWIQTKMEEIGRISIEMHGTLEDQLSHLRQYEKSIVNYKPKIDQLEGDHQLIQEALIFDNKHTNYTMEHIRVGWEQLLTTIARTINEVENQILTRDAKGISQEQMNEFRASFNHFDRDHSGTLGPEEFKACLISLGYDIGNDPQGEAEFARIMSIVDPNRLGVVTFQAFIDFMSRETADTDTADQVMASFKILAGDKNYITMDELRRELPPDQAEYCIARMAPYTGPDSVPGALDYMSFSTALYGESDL

Compound: CC1Cc2ccccc2N1C(=O)C1CCCN(C1)C(=O)CCl (mixture of isomers) [TRIM25 ligand 11 (diastereomer mixture)]
Assay: probe-labelled cysteine peptide fold change vs DMSO (competition) (log2 fold change); higher = less target engagement (more negative = stronger competition)
Settings: THP-1, incubation time: 4 h
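Note: competitive chemoproteomic profiling in live THP-1 cells with an iodoacetamide desthiobiotin (IA-DTB) probe, comparing probe-labelled peptide intensities in compound-treated cells against DMSO-treated controls.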

Row | Target | probe-labelled cysteine peptide fold change (10 µM) | probe-labelled cysteine peptide fold change (50 µM)
1 | ADGRL2_O95490_42_RELSCEGYSIDLR (UniProt O95490) | 0.0113 | 0.0942
2 | ACP1_P24666_146_QLIIEDPYYGNDSDFETVYQQCVR (UniProt P24666) | 0.102 | 0.0531
3 | ADD1_P35611_253_CGLLPISPEALSLGEVAYHDYHGILVDEEEK (UniProt P35611) | 0.0917 | 0.0709
4 | ACSL5_Q9ULC5_121_AEYLGSCLLHK (UniProt Q9ULC5) | 0.0446 | -0.00844
5 | ACOT8_O14734_302_QDGVLAVTCAQEGVIR (UniProt O14734) | -0.0537 | 0.0698
6 | ADH5_P11766_97_AGDTVIPLYIPQCGECK (UniProt P11766) | -0.0807 | -0.0814
7 | ACTR3_P61158_34_LGYAGNTEPQFIIPSCIAIK (UniProt P61158) | 0.112 | 0.000378
8 | ADSS_P30520_18_AFAETYPAASSLPNGDCGRPR (UniProt P30520) | -0.311 | -0.0817
9 | ADPGK_Q9BRR6_178_VLLCGPVGPK (UniProt Q9BRR6) | 0.114 | 0.121
10 | ACTR3B_Q9P1U1_408_DYEEYGPSICR (UniProt Q9P1U1) | 0.0826 | 0.189
11 | ACOX3_O15254_220_LCVPGDQCHGLHPFIVQIRDPK (UniProt O15254) | -0.102 | -0.0601
12 | ACTR3_P61158_394_YAVWFGGSMLASTPEFYQVCHTKK (UniProt P61158) | -0.388 | -0.251
13 | ACTG1_P63261_17_EEEIAALVIDNGSGMCK (UniProt P63261) | -0.119 | -0.314
14 | ACTN1_P12814_370_MVSDINNAWGCLEQVEK (UniProt P12814) | -0.191 | -0.201

Reprinted from above (two entries):
Row | Target | probe-labelled cysteine peptide fold change (10 µM) | probe-labelled cysteine peptide fold change (50 µM)
13 | ACTG1_P63261_17_EEEIAALVIDNGSGMCK (UniProt P63261) | -0.119 | -0.314
14 | ACTN1_P12814_370_MVSDINNAWGCLEQVEK (UniProt P12814) | -0.191 | -0.201
